Measured values published in patent US20240034762A1 (YALE UNIVERSITY, published 2024).
These are yes or no findings as the source states them, for the method shown. Some entries that bind do so weakly or less than the wild type. Sequences can lack the tags named with a protein.

Assays:
[1] = biological target: T1, soluble extracellular domain of human α-Klotho (aa 1-980) fused to a 6xHis tag (human) (UniProt Q9UEF7); assay: BLI sensorgrams; Flag-tagged FGF23 captured by anti-Flag antibody on anti-mouse-Fc biosensor, dipped into sKLA at 6.25-200 nM
T1 sequence: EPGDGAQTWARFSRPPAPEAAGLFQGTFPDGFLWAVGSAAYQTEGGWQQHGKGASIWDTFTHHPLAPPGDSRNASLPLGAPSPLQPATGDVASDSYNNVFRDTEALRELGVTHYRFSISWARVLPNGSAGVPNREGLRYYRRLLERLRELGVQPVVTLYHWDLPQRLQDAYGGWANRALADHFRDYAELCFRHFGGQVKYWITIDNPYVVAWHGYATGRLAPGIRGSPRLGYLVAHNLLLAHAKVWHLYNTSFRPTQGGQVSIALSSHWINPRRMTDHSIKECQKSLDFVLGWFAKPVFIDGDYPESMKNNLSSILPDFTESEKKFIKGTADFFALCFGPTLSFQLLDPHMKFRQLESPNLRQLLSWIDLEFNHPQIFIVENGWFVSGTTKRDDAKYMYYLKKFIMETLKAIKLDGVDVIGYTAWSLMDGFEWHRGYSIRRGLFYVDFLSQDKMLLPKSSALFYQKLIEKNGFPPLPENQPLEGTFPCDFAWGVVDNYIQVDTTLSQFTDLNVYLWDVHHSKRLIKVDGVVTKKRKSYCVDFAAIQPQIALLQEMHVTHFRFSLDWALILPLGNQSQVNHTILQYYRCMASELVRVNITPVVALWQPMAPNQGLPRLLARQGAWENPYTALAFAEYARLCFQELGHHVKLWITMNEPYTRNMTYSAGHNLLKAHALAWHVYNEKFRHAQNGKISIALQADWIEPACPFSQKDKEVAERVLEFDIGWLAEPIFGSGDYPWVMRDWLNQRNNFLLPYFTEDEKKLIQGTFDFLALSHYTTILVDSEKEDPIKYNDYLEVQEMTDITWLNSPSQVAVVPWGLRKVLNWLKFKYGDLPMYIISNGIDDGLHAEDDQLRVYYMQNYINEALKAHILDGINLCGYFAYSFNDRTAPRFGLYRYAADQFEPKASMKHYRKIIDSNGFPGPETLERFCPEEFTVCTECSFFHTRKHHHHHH

[2] = biological target: T1, soluble extracellular domain of human α-Klotho (aa 1-980) fused to a 6xHis tag (human); assay: BLI; figure legend
[3] = biological target: T2, α-Klotho fused to an N-terminal (extracellular) HaloTag on L6 cells (Homo sapiens (Human)) (UniProt Q9UEF7); assay: chimeric receptor activation and TIRFM single-molecule imaging on L6 cells
T2 sequence (chain, HaloTag labeled with Alexa488 HaloTag ligand): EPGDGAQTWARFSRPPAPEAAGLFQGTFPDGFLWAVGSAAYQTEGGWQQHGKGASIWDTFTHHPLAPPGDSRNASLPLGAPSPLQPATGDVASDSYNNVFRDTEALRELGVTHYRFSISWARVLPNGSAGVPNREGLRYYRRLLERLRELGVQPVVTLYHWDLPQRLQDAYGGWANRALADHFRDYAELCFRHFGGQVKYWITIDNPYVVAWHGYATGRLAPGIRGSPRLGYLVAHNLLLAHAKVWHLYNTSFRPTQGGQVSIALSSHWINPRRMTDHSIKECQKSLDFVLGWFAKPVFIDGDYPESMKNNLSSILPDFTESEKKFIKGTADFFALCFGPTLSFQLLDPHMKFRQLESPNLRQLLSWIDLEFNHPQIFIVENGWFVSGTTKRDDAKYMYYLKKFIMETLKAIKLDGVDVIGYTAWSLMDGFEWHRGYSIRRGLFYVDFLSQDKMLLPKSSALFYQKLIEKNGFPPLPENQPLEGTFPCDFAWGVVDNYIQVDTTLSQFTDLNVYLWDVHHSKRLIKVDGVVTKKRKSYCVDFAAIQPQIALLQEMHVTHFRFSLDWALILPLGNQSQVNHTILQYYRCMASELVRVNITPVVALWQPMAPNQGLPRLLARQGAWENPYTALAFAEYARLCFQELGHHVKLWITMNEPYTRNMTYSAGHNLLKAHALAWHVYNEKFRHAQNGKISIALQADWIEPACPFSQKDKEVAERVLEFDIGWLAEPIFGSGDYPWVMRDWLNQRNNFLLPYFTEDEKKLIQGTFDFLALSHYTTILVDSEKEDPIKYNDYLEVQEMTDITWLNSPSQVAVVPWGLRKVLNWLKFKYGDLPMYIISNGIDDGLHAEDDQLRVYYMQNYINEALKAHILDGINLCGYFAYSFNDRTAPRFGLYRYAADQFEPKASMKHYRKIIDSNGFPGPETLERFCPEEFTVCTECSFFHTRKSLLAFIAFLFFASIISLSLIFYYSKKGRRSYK

B1: FLAG-tagged human FGF23 D188A mutant expressed in Expi293F cells (ligand)
chain: DYKDDDDKYPNASPLLGSSWGGLIHLYTATARNSYHLQIHKNGHVDGAPHQTIYSALMIRSEDAGFVVITGVMSRRYLCMDFRGNIFGSHYFDPENCRFQHQTLENGYDVYHSPQYHFLVSLGAAKAAFLPGMNPPPYSQFLSRRNEIPLIHFNTPIPRQHTQSAEDDSERAPLNVLKPRARMTPAPASCSQELPSAEDNSPMASDPLGVVRGGRVNTHAGGTGPEGCRPFAKFI
binding [1]: binds

B2: FLAG-tagged human FGF23 (aa 25-251) expressed in Expi293F cells (ligand)
chain: DYKDDDDKYPNASPLLGSSWGGLIHLYTATARNSYHLQIHKNGHVDGAPHQTIYSALMIRSEDAGFVVITGVMSRRYLCMDFRGNIFGSHYFDPENCRFQHQTLENGYDVYHSPQYHFLVSLGAAKAAFLPGMNPPPYSQFLSRRNEIPLIHFNTPIPRQHTQSAEDDSERDPLNVLKPRARMTPAPASCSQELPSAEDNSPMASDPLGVVRGGRVNTHAGGTGPEGCRPFAKFI
modifications: O-linked glycosylation (sites not given); Cys206-Cys244 disulfide bridge
notes: also called FGF23-WT; mFGF23-WT
binding [2]: binds
binding [1]: binds

B3: FLAG-tagged human FGF23 C206S/C244S mutant expressed in Expi293F cells (ligand)
chain: DYKDDDDKYPNASPLLGSSWGGLIHLYTATARNSYHLQIHKNGHVDGAPHQTIYSALMIRSEDAGFVVITGVMSRRYLCMDFRGNIFGSHYFDPENCRFQHQTLENGYDVYHSPQYHFLVSLGAAKAAFLPGMNPPPYSQFLSRRNEIPLIHFNTPIPRQHTQSAEDDSERDPLNVLKPRARMTPAPASSSQELPSAEDNSPMASDPLGVVRGGRVNTHAGGTGPEGSRPFAKFI
modifications: O-linked glycosylation (sites not given)
notes: also called FGF23-CS; mFGF23-CS
binding [2]: binds
binding [1]: binds

B4: FLAG-tagged human FGF23 C206S/C244S/D188A mutant expressed in Expi293F cells (ligand)
chain: DYKDDDDKYPNASPLLGSSWGGLIHLYTATARNSYHLQIHKNGHVDGAPHQTIYSALMIRSEDAGFVVITGVMSRRYLCMDFRGNIFGSHYFDPENCRFQHQTLENGYDVYHSPQYHFLVSLGAAKAAFLPGMNPPPYSQFLSRRNEIPLIHFNTPIPRQHTQSAEDDSERAPLNVLKPRARMTPAPASSSQELPSAEDNSPMASDPLGVVRGGRVNTHAGGTGPEGSRPFAKFI
notes: also called FGF23-CS D188A
binding [1]: binds

B5: full length human FGF23 (aa 25-251) expressed in E. coli (ligand)
chain: YPNASPLLGSSWGGLIHLYTATARNSYHLQIHKNGHVDGAPHQTIYSALMIRSEDAGFVVITGVMSRRYLCMDFRGNIFGSHYFDPENCRFQHQTLENGYDVYHSPQYHFLVSLGAAKAAFLPGMNPPPYSQFLSRRNEIPLIHFNTPIPRQHTQSAEDDSERDPLNVLKPRARMTPAPASCSQELPSAEDNSPMASDPLGVVRGGRVNTHAGGTGPEGCRPFAKFI
binding [3]: binds
